No constants are given. Whether binding was seen depends on the method and setting. Some entries that bind do so weakly or less than the wild type. Blank lines part the entries; values can stand above or below the binder they belong to.
Columns and labels:
[1] = target: SIRPα a1d1 expressed on yeast (human) (UniProt P78324); experiment: titration on SIRPα-displaying yeast, flow cytometry
[2] = target: SIRPα a1d1 expressed on yeast (human) (UniProt P78324); experiment: flow cytometry titration on yeast expressing SIRPα a1d1
[3] = target: SIRPα a1d1 expressed on yeast (human) (UniProt P78324); experiment: titration on SIRPα-displaying yeast, flow cytometry; wild type is the weaker one

Sequences of proteins named here, by UniProt entry; tags and fusion partners are left off. Residues count along the entry.
UniProt P78324, residues 31-149: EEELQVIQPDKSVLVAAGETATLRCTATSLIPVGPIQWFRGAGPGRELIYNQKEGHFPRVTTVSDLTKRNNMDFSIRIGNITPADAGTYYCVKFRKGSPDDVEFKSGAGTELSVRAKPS

binding [1]: binds
binding [2]: binds
binding [3]: binds
B1: biotinylated WT CD47 (ligand)
chain: QLLFNKTKSVEFTFGNDTVVIPCFVTNMEAQNTTEVYVKWKFKGRDIYTFDGALNKSTVPTDFSSAKIEVSQLLKGDASLKMDKSDAVSHTGNYTCEVTELTREGETIIELKYRVVSGLNDIFEAQKIEWHE
modifications: biotin on the biotin acceptor peptide tag (BirA ligase)

binding [1]: binds
binding [2]: binds
B2: biotinylated high affinity CD47 variant N3612 C15G (designed binder)
chain: WQPPLLFNKTKSVEFTFGNDTVVIPCFVTNMEAQNTTEVYVKWKFKGRDIYTFDGQANKSTVPTDFSSAKIEVSQLLKGDASLKMDKSDAVSHTGNYTCEVTELTREGETIIELKYRVVSGLNDIFEAQKIEWHE
modifications: biotin on the biotin acceptor peptide tag (BirA ligase)

From patent US20180127480A1
